# Results as given in PubChem BioAssay AID504834 (National Center for Advancing Translational Sciences (NCATS), 2011).
# Among all 320,000 compounds or so, about 22,000 (6.9%) were called active. Inconclusive means that the source gave no clear call. Such entries were picked first, then a sample of the others. Calls follow the shape of the dose curve; as a rule, active = well fitted inhibition curve with a large enough effect; inconclusive = small, poorly fitted or top-dose-only effect, or another doubt; inactive = no such curve, though single readings can be large or run the other way. A potency beside an inconclusive call is a rough fit, not a confirmed value.
# Assay: Primary qHTS for delayed death inhibitors of the malarial parasite plastid, 96 hour incubation
# Details: P. falciparum luciferase reporter growth; series mostly up to 28.7 µM
# Outline: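 Compounds incubated with erythrocytes infected by luciferase-expressing P. falciparum (2% hematocrit, 0.05% parasitemia final) for 96 hours, 37 C in 5% CO2. Growth inhibition scored as decreased luciferase luminescence.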
# Potency is read from the fitted curve at half-maximal effect.
row,Structure (SMILES),Potency
1,CCCCN(C(=O)c1cccc(-n2cccc2)c1)c1c(N)n(CCCC)c(=O)[nH]c1=O,"inconclusive: 13.1 µM [inhibitor, partial curve]"
2,CCOC(=O)N1CCC(NC(=O)C2=CCN(S(=O)(=O)c3ccc(OC)cc3)CC2)CC1,"inconclusive: 4.65 µM [inhibitor, partial curve, poor fit]"
3,CCOC(=O)N1CCN(C2CCCN(C(=O)c3cccc(Cl)c3)C2)CC1 (stereo not drawn),"inconclusive: 14.7 µM [inhibitor, single point]"
4,COC(=O)c1cc(S(=O)(=O)NCC2CCN(Cc3cccc(F)c3)CC2)cn1C,"inconclusive: 10.4 µM [inhibitor, single point]"
5,Cc1ccccc1/C=C/C(=O)c1ccc([N+](=O)[O-])o1,"inconclusive: 16.5 µM [inhibitor, single point]"
6,Cc1cc(NC(=O)CSCC(=O)Nc2ccccc2N2CCCCC2)no1,"inconclusive: 3.29 µM [inhibitor, single point]"
7,CC1(C)C2CC=C(CN3CCC(O)CC3)C1C2 (stereo not drawn),inactive
8,O=C1/C(=C/c2ccc(F)cc2)CCC1C1CCCC1 (stereo not drawn),"inconclusive: 3.29 µM [inhibitor, full curve, poor fit]"
9,C/C(=N/NC(=O)CNC(=O)c1cccnc1)c1ccc([N+](=O)[O-])cc1,"inconclusive: 13.1 µM [inhibitor, single point]"
10,C#CC(=O)N(c1ccc(OC)cc1OC)C(C(=O)NC1CCCC1)c1cccs1 (stereo not drawn),inactive
11,CN(C1CCCCC1)C(CNS(=O)(=O)c1ccccc1)c1ccccc1 (stereo not drawn),"inconclusive: 18.5 µM [inhibitor, single point]"
12,c1ccc(CN2CCC(Nc3nc(-c4cccnc4)nc4ccccc34)CC2)cc1,"inconclusive: 10.4 µM [inhibitor, single point]"
13,CCN(Cc1ccncc1)Cc1ccc(Br)cc1,"inconclusive: 9.28 µM [inhibitor, single point]"
14,Cc1ccc2ccc(S(=O)(=O)n3nc(C)cc3C)cc2c1,"inconclusive: 20.8 µM [inhibitor, partial curve, poor fit]"
15,CC(C)CNC(=S)N(CCN(C)C)Cc1cc2cc3c(cc2[nH]c1=O)OCO3,inactive
16,O=C(Nc1ccc(Cl)cc1)N(Cc1cccs1)Cc1cccs1,"inconclusive: 18.5 µM [inhibitor, single point]"
17,Cc1n[nH]c(C)c1S(=O)(=O)N1CCN(S(=O)(=O)c2ccccc2C#N)CC1,"inconclusive: 10.4 µM [inhibitor, single point]"
18,CCOc1ccccc1NC(=O)CSc1ccc2nnc(-c3cccnc3)n2n1,"inconclusive: 18.5 µM [inhibitor, single point]"
19,Cc1ccnc(NC(=O)C(Cc2ccccc2)NC(=O)c2ccccc2)c1 (stereo not drawn),"inconclusive: 18.5 µM [inhibitor, single point]"
20,CC(NS(=O)(=O)c1ccccc1)C(=O)NC1CCCC1 (stereo not drawn),"inconclusive: 18.5 µM [inhibitor, single point]"
21,Cc1cccc(NC(=O)c2ccc(OCc3c(C)noc3C)cc2)c1,"inconclusive: 3.7 µM [inhibitor, single point]"
22,O=C(CN1C(=O)C2CCCCC2C1=O)NC1CCCc2ccccc21 (stereo not drawn),inactive

row,Structure (SMILES),Potency
1,COc1ccc(-c2nn(-c3ccccc3)cc2C(=O)Nc2cccc(C(=O)O)c2)cc1[N+](=O)[O-],inactive
2,Cc1ccc(-c2nc3ncccc3o2)cc1NC(=O)c1sc2ccccc2c1Cl,inactive
3,O=C(C(Cc1ccccc1)n1cccc1)N1CCN(C2CCCCC2)CC1 (stereo not drawn),"inconclusive: 11.7 µM [inhibitor, single point]"
4,Cc1ccc(N(CC(=O)NC2CCCC2)C(=O)CNC(=O)c2cccs2)cc1C,inactive
5,CN1C(=S)N(c2cccnc2)C(=O)/C1=C\c1ccc(N(C)C)cc1,"inconclusive: 18.5 µM [inhibitor, single point]"
6,Cc1oc(-c2ccc(C(F)(F)F)cc2)nc1CN(Cc1ccccn1)C[C@@H]1CCC(=O)N1,"inconclusive: 18.5 µM [inhibitor, single point]"
7,CS(=O)(=O)N1N=C(c2cccs2)CC1c1ccccc1F (stereo not drawn),inactive
8,Cc1noc2ncnc(Oc3ccc(C(C)(C)C)cc3)c12,"inconclusive: 4.65 µM [inhibitor, partial curve, poor fit]"
9,CCOc1ccc(NC(=O)C2CCCN(S(C)(=O)=O)C2)cc1 (stereo not drawn),"inconclusive: 8.28 µM [inhibitor, partial curve]"
10,CC(C)(C)OC(=O)NCCCC[C@H](NC(=O)c1[nH]cnc1C(=O)Nc1ccc(Cl)cc1)C(=O)OC(C)(C)C,active: 5.86 µM
11,CCOc1ccc(NC(=S)Nc2cccnc2)cc1,inactive
12,COc1cccc(/C=N/NC(=O)c2ccc(-n3cnnn3)cc2)c1,inactive
13,CCN(CC)S(=O)(=O)c1ccc(-n2cnc3cc(C)c(C)cc32)nc1,"inconclusive: 18.5 µM [inhibitor, single point]"
14,CCCOc1ccccc1OCC(=O)N1CCN(S(=O)(=O)c2ccc(Cl)cc2)CC1,"inconclusive: 11.7 µM [inhibitor, single point]"
15,N#CC1=C(N)SC(N)=C(C#N)C1C1C=CCCC1 (stereo not drawn),inactive
16,CC(=O)Nc1ccc(SCCN2CC[C@@H](C(C)(C)C)CCC2=O)cc1,"inconclusive: 8.28 µM [inhibitor, single point]"
17,O=C(CN1CCCC1)Nc1ccc(-c2nc3cc(NC(=O)CN4CCCC4)ccc3o2)cc1,"inconclusive: 0.208 µM [inhibitor, partial curve, poor fit]"
18,O=C(CN1CCN(c2ccccc2F)CC1)NC(=O)NCc1ccccc1,"inconclusive: 18.5 µM [inhibitor, single point]"
19,Oc1ccccc1CN(Cc1ccco1)CC(O)COCc1ccc(Cl)cc1 (stereo not drawn),active: 2.08 µM
20,COC(=O)C1=C(Cn2cnc3ccccc32)NC(=O)NC1c1cc(C)ccc1C (stereo not drawn),"inconclusive: 10.4 µM [inhibitor, single point]"
21,O=C(Nc1ccncc1)c1c(Cl)cccc1Cl,"inconclusive: 9.28 µM [inhibitor, single point]"

# An excerpt taken from the entries so far, as a working copy:
row,Structure (SMILES),Potency
11,CN(C1CCCCC1)C(CNS(=O)(=O)c1ccccc1)c1ccccc1 (stereo not drawn),"inconclusive: 18.5 µM [inhibitor, single point]"
12,c1ccc(CN2CCC(Nc3nc(-c4cccnc4)nc4ccccc34)CC2)cc1,"inconclusive: 10.4 µM [inhibitor, single point]"
13,CCN(Cc1ccncc1)Cc1ccc(Br)cc1,"inconclusive: 9.28 µM [inhibitor, single point]"
